{
  "source": "PubChem BioAssay AID1347426",
  "about": "(Functional Genomics Laboratory (NCATS/FGL), 2020)",
  "note": "The whole screen tested about 31,000 sequences, of which about 1,400 (4.5%) were called active.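 Rule for the calls: active = median seed-adjusted z-score above 1 or below -1; inactive = the rest.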 The list shows a part of the results.",
  "data": [
    {"assay": "Novel Modifiers of Survival Motor Neuron (SMN) Protein: Gene Identification via Genome-wide siRNA Screen;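 note: luminescence tracks full-length SMN protein made from the SMN2 reporter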", "conditions": "HEK293T SMN2-luciferase reporter, siRNA knockdown, 72 h; actives lie on both sides", "description": "Spinal muscular atrophy (SMA) is the most common neuromuscular autosomal recessive disorder and one of the leading genetic causes of infant death. SMA results from mutations inducing loss of function or deletion in the survival of motor neuron-1 gene (SMN1), leading to deficiency of the survival motor neuron (SMN) protein. Although a second nearly identical gene, SMN2, is retained in humans, its expression primarily produces an aberrantly spliced isoform that is largely unstable and quickly degraded. We performed a genome-wide RNAi screen using a cell-based reporter assay to identify genes and pathways that modulate SMN protein stability. The screen identified over 200 genes that led to the greatest increase or decrease in luciferase expression.\nUsing HEK293T cells stably expressing a luciferase reporter that combines the promoter and splicing based cassettes in tandem with the major portion of the native SMN2 cDNA with luciferase, we performed a genome-wide RNAi screen to identify modulators of SMN protein levels. Luciferase is expressed when full-length SMN protein is generated with luminescence signal proportional to SMN protein levels. Our luciferase-based reporter assay was used to screen Ambion Silencer Select Human Druggable Genome siRNA library (10418 genes, 3 unique siRNAs per gene) using lipid-based reverse transfection.\nBriefly, 1 pmol of each siRNA was spotted to a well of a 384-well plate (Corning, Corning, NY) and 20 microL of serum-free DMEM containing […] of Lipofectamine RNAiMax (Life Technologies, Carlsbad, CA) was then added to each well. Transfected cells were maintained at 37 degrees C in 5% CO2 for 72 hours, 20 microL of ONE-Glo Reagent (Promega) was added to wells for luciferase quantification. Raw luminescence reads were normalized to Ambion(R) Silencer(R) Negative Control #2 siRNA, then log10 transformed. A robust statistical measure of median absolute deviation (MAD) to standardize siRNA activities from each screen. Common Seed Analysis was used to help prioritize clean hits as opposed to those appearing to arise from seed based off-target effects. Candidate modulators were defined as the genes having a MAD score greater than 1.0 or less than -1.0.", "values": [
      {"sequence": "GAACUUGGGUGGAUAGCAATT against EPHA4", "median seed-adjusted z-score": "inactive: -0.0739"},
      {"sequence": "GAAUCAACUCUGAACGGAATT against CBL", "median seed-adjusted z-score": "inactive: -0.417"},
      {"sequence": "GCCUAGUCUGUGAUCCUGUTT against 2-Mar", "median seed-adjusted z-score": "inactive: 0.335"},
      {"sequence": "CCAUGACCUUUAACAACCATT against HIPK2", "median seed-adjusted z-score": "inactive: 0.156"},
      {"sequence": "CAAUGAAGACCUUUUCUAATT against MS4A10", "median seed-adjusted z-score": "inactive: -0.24"},
      {"sequence": "GGUGCUUCAUUUUAGUCAUTT against SERPINB11", "median seed-adjusted z-score": "inactive: 0"},
      {"sequence": "GCAGAUGUAUAAGAAGGCATT against RRM2", "median seed-adjusted z-score": "active: -3.84"},
      {"sequence": "CGUGACCAGUACGAGCAGATT against KRT16", "median seed-adjusted z-score": "inactive: -0.233"},
      {"sequence": "GAAAAGGACUGAAUCGCCATT against DLX4", "median seed-adjusted z-score": "inactive: -0.0473"},
      {"sequence": "GAAGAGUGGUACUACCAGATT against BACE2", "median seed-adjusted z-score": "inactive: 0.0853"},
      {"sequence": "GAGUAGCUAUGGUCAACAATT against EWSR1", "median seed-adjusted z-score": "inactive: -0.654"},
      {"sequence": "CAGUACAGGUUGAGUCAAATT against LRRFIP1", "median seed-adjusted z-score": "inactive: -0.181"},
      {"sequence": "CAGCUGCAGUAUCUCGGAATT against EHMT1", "median seed-adjusted z-score": "inactive: 0.00857"},
      {"sequence": "GCAGGACCUCGUCAUCGAATT against ZNF296", "median seed-adjusted z-score": "inactive: -0.00618"},
      {"sequence": "GGUGCCUCUUGUAUCCCUATT against CRABP1", "median seed-adjusted z-score": "inactive: -0.625"},
      {"sequence": "GAGUGGACAUUGCUGGAUATT against ZNF700", "median seed-adjusted z-score": "inactive: 0"},
      {"sequence": "CCUCCAGGGAAUUACAAGATT against FGF1", "median seed-adjusted z-score": "inactive: 0.415"},
      {"sequence": "CAGUAUCACUUGCUGAACATT against ALOX12", "median seed-adjusted z-score": "inactive: -0.247"},
      {"sequence": "CAGUGAAUCUUGGUUGUAATT against TBP", "median seed-adjusted z-score": "active: -1.25"},
      {"sequence": "ACGGAACCUUGAACAGAGATT against CIB1", "median seed-adjusted z-score": "inactive: 0.14"},
      {"sequence": "GAAUGCAUCUGUUCUUCUATT against VN1R1", "median seed-adjusted z-score": "inactive: 0.531"},
      {"sequence": "GACUGUCGUCCGAAACAUATT against PGLYRP3", "median seed-adjusted z-score": "inactive: -0.671"},
      {"sequence": "GCCCAACAAGUGCAUGUUUTT against GLIS1", "median seed-adjusted z-score": "inactive: 0.838"},
      {"sequence": "GGAUGACCUCGAUGAUGAATT against DPF2", "median seed-adjusted z-score": "inactive: 0.373"},
      {"sequence": "AUAUCUGAGUAAUUGGUUUTT against SIP1", "median seed-adjusted z-score": "inactive: -0.443"},
      {"sequence": "CUACAAGACAGGCAAUCUATT against IFI30", "median seed-adjusted z-score": "inactive: 0.401"},
      {"sequence": "CAAGGUUCCUGCACCUAAATT against CLASP2", "median seed-adjusted z-score": "inactive: 0.157"},
      {"sequence": "CACACAUCGAAGCUCAGAATT against PDLIM7", "median seed-adjusted z-score": "inactive: 0.548"},
      {"sequence": "GCGGUAACCUGGUACAAGATT against IL18RAP", "median seed-adjusted z-score": "inactive: -0.681"},
      {"sequence": "GCAGAUAUCGUACCCAAAATT against PPID", "median seed-adjusted z-score": "inactive: -0.206"},
      {"sequence": "GAUCCCAACUGUUUCGUUUTT against AKAP10", "median seed-adjusted z-score": "inactive: 0.0689"},
      {"sequence": "CAUCCGCUCCAAGUUCAAATT against AP2A1", "median seed-adjusted z-score": "inactive: 0.559"},
      {"sequence": "GAUAAGUUAUCAAGUCGUATT against AFF4", "median seed-adjusted z-score": "inactive: -0.0637"},
      {"sequence": "CAUUGAGCGUGGACUGGUATT against ACTRT1", "median seed-adjusted z-score": "inactive: 0"},
      {"sequence": "GAAACGUGAUGGAGAGUAATT against ZNF212", "median seed-adjusted z-score": "inactive: 0.863"},
      {"sequence": "GAAUCUAUGAGAUGAACAATT against LDB2", "median seed-adjusted z-score": "inactive: -0.0847"},
      {"sequence": "CAGGGAGACUGGUGAGAAATT against ZNF565", "median seed-adjusted z-score": "inactive: 0.457"},
      {"sequence": "CGACCUCUUCAACAGCAAUTT against CEBPD", "median seed-adjusted z-score": "inactive: -0.101"},
      {"sequence": "CUAUCUCACCAAGAUCUAUTT against PODN", "median seed-adjusted z-score": "inactive: 0.589"},
      {"sequence": "ACAGAUAUAUUCACUCCAATT against OSR1", "median seed-adjusted z-score": "inactive: -0.185"},
      {"sequence": "CGCUAUGUCUUGUUAUCAATT against PREP", "median seed-adjusted z-score": "inactive: 0.0883"},
      {"sequence": "CGAGCAGAAUUACUACCGGTT against FOXC2", "median seed-adjusted z-score": "inactive: -0.792"},
      {"sequence": "CUUAAUUCUUGGUCUAUGATT against SP6", "median seed-adjusted z-score": "inactive: -0.176"},
      {"sequence": "GGAUCCGAAAGAACAAUAATT against SELP", "median seed-adjusted z-score": "inactive: -0.879"},
      {"sequence": "GAACUAUGCCGAUCAGAUUTT against MAPK8IP3", "median seed-adjusted z-score": "inactive: 0.734"},
      {"sequence": "GGCCUACGCUCAGAAUCAUTT against FUK", "median seed-adjusted z-score": "inactive: -0.0381"},
      {"sequence": "CUCUAUCAUUACUCCAAGATT against SULT2B1", "median seed-adjusted z-score": "inactive: 0"},
      {"sequence": "AGACAGAGCUACGACAUCATT against CARM1", "median seed-adjusted z-score": "inactive: 0.317"},
      {"sequence": "GGAAGUUAUUUAGAGAUAUTT against ZNF419", "median seed-adjusted z-score": "inactive: 0.0405"},
      {"sequence": "UCAGGAUUGUUUCUCGGCATT against HSD11B2", "median seed-adjusted z-score": "inactive: 0.215"},
      {"sequence": "CCCACGAAGAGAAGUCUUATT against ZNF498", "median seed-adjusted z-score": "inactive: -0.476"},
      {"sequence": "CGAAGACUGCCUCAAGUGUTT against LMO1", "median seed-adjusted z-score": "inactive: 0.104"},
      {"sequence": "CAGUUAUGAUUGGUGGAGATT against CDC42", "median seed-adjusted z-score": "inactive: -0.0938"},
      {"sequence": "GCCGCUUUGAGGACCAGUATT against RASD2", "median seed-adjusted z-score": "inactive: 0.0673"},
      {"sequence": "GGCUUUUUCUAAUCAGGCATT against MSC", "median seed-adjusted z-score": "inactive: -0.208"},
      {"sequence": "GCCUAGCUCUCUUCACGUATT against NEO1", "median seed-adjusted z-score": "inactive: 0.16"},
      {"sequence": "CAACCACACCUCAACAAAATT against FGD4", "median seed-adjusted z-score": "inactive: -0.0017"},
      {"sequence": "GGAUCUCGCUGGAAGUCCATT against SOX13", "median seed-adjusted z-score": "inactive: 0.867"},
      {"sequence": "CUGUAAGACGUGUCCCUAUTT against GRM4", "median seed-adjusted z-score": "inactive: -0.71"},
      {"sequence": "CCAUAGAUGGGACUCCUAATT against PAPOLG", "median seed-adjusted z-score": "inactive: 0.0674"},
      {"sequence": "CUGUCUACAUCGUCCAAGATT against EFNB1", "median seed-adjusted z-score": "inactive: -0.448"},
      {"sequence": "GACUCAAGUAUAGAUUAAATT against LBR", "median seed-adjusted z-score": "inactive: 0.303"},
      {"sequence": "UUACAGACCUGAGCACUUATT against BAHD1", "median seed-adjusted z-score": "inactive: 0.376"},
      {"sequence": "GGCUCCUACGCAUCAAGAATT against USH1C", "median seed-adjusted z-score": "inactive: -0.164"},
      {"sequence": "GCAUCCAUGAAACAACUUATT against ACTC1", "median seed-adjusted z-score": "inactive: 0"},
      {"sequence": "GCUCGUCGGUGUUCUGCAATT against RPH3AL", "median seed-adjusted z-score": "inactive: 0.21"},
      {"sequence": "CAAAUUUCCUGUUAAUCGATT against APPL1", "median seed-adjusted z-score": "inactive: 0"},
      {"sequence": "CCAGUGCCCUUAUAAGAGATT against WFDC12", "median seed-adjusted z-score": "inactive: 0"},
      {"sequence": "CAAGGAAGCAGGUAUGUGATT against SRA1", "median seed-adjusted z-score": "inactive: 0.677"}
    ]}
  ]
}
